{"source": "patent US11819781B2", "about": "“Device for solid phase extraction and method for use thereof” (Waters Technologies Corporation, priority 2014, dated 2023)", "data": [{"assay": "Example 10: recovery, % RSD and matrix effects, μElution invention plate vs HLB vs ISOLUTE SLE+", "set-up": "species or system rat", "details": "HLB μElution plate, n = 4", "values": [{"molecule": "Cc1nnc2n1-c1ccc(Cl)cc1C(c1ccccc1)=NC2", "note": "[Alprazolam]", "Matrix Effects": 4.6}, {"molecule": "CN(C)CCC=C1c2ccccc2CCc2ccccc21", "note": "[Amitriptyline]", "Matrix Effects": 1.8}, {"molecule": "COc1ccc2cc([C@H](C)C(=O)O)ccc2c1", "note": "[Naproxen]", "Matrix Effects": "−0.1"}, {"molecule": "O=c1ccc2ccc(O)cc2o1", "note": "[7-Hydroxycoumarin]", "Matrix Effects": "−1.2"}, {"molecule": "CCOc1ccc(NC(C)=O)cc1", "note": "[Phenacetin]", "Matrix Effects": 4.2}, {"molecule": "CC(C)NCC(O)COc1cccc2ccccc12", "note": "(centres unmarked) [Propranolol]", "Matrix Effects": 3.1}, {"molecule": "C[C@H]1C[C@H]2[C@@H]3CCC4=CC(=O)C=C[C@]4(C)[C@@]3(F)[C@@H](O)C[C@]2(C)[C@@]1(O)C(=O)CO", "note": "[Beta Meth]", "Matrix Effects": "−2.3"}, {"molecule": "CNCCCC1c2ccccc2C=Cc2ccccc21", "note": "[Protriptyline]", "Matrix Effects": 2.8}]}, {"assay": "Example 10: recovery, % RSD and matrix effects, μElution invention plate vs HLB vs ISOLUTE SLE+", "set-up": "species or system rat", "details": "ISOLUTE SLE+ plate, n = 4", "values": [{"molecule": "Cc1nnc2n1-c1ccc(Cl)cc1C(c1ccccc1)=NC2", "note": "[Alprazolam]", "Matrix Effects": 15.1}, {"molecule": "CN(C)CCC=C1c2ccccc2CCc2ccccc21", "note": "[Amitriptyline]", "Matrix Effects": "−31.1"}, {"molecule": "COc1ccc2cc([C@H](C)C(=O)O)ccc2c1", "note": "[Naproxen]", "Matrix Effects": "−7.5"}, {"molecule": "O=c1ccc2ccc(O)cc2o1", "note": "[7-Hydroxycoumarin]", "Matrix Effects": "−9.4"}, {"molecule": "CCOc1ccc(NC(C)=O)cc1", "note": "[Phenacetin]", "Matrix Effects": 10.9}, {"molecule": "CC(C)NCC(O)COc1cccc2ccccc12", "note": "(centres unmarked) [Propranolol]", "Matrix Effects": "−21.5"}, {"molecule": "C[C@H]1C[C@H]2[C@@H]3CCC4=CC(=O)C=C[C@]4(C)[C@@]3(F)[C@@H](O)C[C@]2(C)[C@@]1(O)C(=O)CO", "note": "[Beta Meth]", "Matrix Effects": "−13.5"}, {"molecule": "CNCCCC1c2ccccc2C=Cc2ccccc21", "note": "[Protriptyline]", "Matrix Effects": "−29.7"}]}, {"assay": "Example 10: recovery, % RSD and matrix effects, μElution invention plate vs HLB vs ISOLUTE SLE+", "set-up": "species or system rat", "details": "Invention μElution plate, n = 4", "values": [{"molecule": "Cc1nnc2n1-c1ccc(Cl)cc1C(c1ccccc1)=NC2", "note": "[Alprazolam]", "Matrix Effects": 2.1}, {"molecule": "CN(C)CCC=C1c2ccccc2CCc2ccccc21", "note": "[Amitriptyline]", "Matrix Effects": 2.4}, {"molecule": "COc1ccc2cc([C@H](C)C(=O)O)ccc2c1", "note": "[Naproxen]", "Matrix Effects": 0.8}, {"molecule": "O=c1ccc2ccc(O)cc2o1", "note": "[7-Hydroxycoumarin]", "Matrix Effects": 3.5}, {"molecule": "CCOc1ccc(NC(C)=O)cc1", "note": "[Phenacetin]", "Matrix Effects": 3.7}, {"molecule": "CC(C)NCC(O)COc1cccc2ccccc12", "note": "(centres unmarked) [Propranolol]", "Matrix Effects": 2.5}, {"molecule": "C[C@H]1C[C@H]2[C@@H]3CCC4=CC(=O)C=C[C@]4(C)[C@@]3(F)[C@@H](O)C[C@]2(C)[C@@]1(O)C(=O)CO", "note": "[Beta Meth]", "Matrix Effects": "−0.4"}, {"molecule": "CNCCCC1c2ccccc2C=Cc2ccccc21", "note": "[Protriptyline]", "Matrix Effects": 1.2}]}, {"assay": "Example 6: recovery and matrix effects of steroids in human plasma, mixed sorbent μElution plate", "details": "μElution plate mixed 2 mg OSTRO/1 mg OASIS HLB", "units": {"Matrix Effects Mean": "%"}, "values": [{"molecule": "CC(=O)[C@@]1(O)CC[C@H]2[C@@H]3CCC4=CC(=O)CC[C@]4(C)[C@H]3CC[C@@]21C", "note": "[Device 17-OHP, 17α-hydroxyprogesterone]", "Matrix Effects Mean": "−4.5"}, {"molecule": "C[C@]12CCC(=O)C=C1CC[C@@H]1[C@@H]2CC[C@]2(C)C(=O)CC[C@@H]12", "note": "[Adione, androstenedione]", "Matrix Effects Mean": "−6.9"}]}, {"assay": "not given", "details": "1 cc 30 mg mixed device; plasma; n = 4", "units": {"Matrix Effect": "%"}, "values": [{"molecule": "Cc1nnc2n1-c1ccc(Cl)cc1C(c1ccccc1)=NC2", "note": "[Alprazolam]", "Matrix Effect": "−0.5"}, {"molecule": "CN(C)CCC=C1c2ccccc2CCc2ccccc21", "note": "[Amitriptyline]", "Matrix Effect": "−4.03"}, {"molecule": "COc1ccc2cc([C@H](C)C(=O)O)ccc2c1", "note": "[Naproxen]", "Matrix Effect": "−1.64"}, {"molecule": "O=c1ccc2ccc(O)cc2o1", "note": "[7-Hydroxycoumarin]", "Matrix Effect": 1.56}, {"molecule": "CC(C)NCC(O)COc1cccc2ccccc12", "note": "(centres unmarked) [Propranolol]", "Matrix Effect": 1.46}, {"molecule": "CNCCCC1c2ccccc2C=Cc2ccccc21", "note": "[Protriptyline]", "Matrix Effect": 0.83}]}]}
